# Assay results as given in PubChem BioAssay AID540276 (National Center for Advancing Translational Sciences (NCATS), 2011).
# In all, about 300,000 compounds went through this assay and about 5,400 (1.8%) were called active. Inconclusive means that the source gave no clear call. Such entries were picked first, then a sample of the others. Calls come from the whole dose curve; tested in HEK293 cells. A potency beside an inconclusive call is a rough fit, not a confirmed value.
# Assay: qHTS for inhibitors of binding or entry into cells for Marburg Virus
# Settings: Marburg virus pseudotyped entry inhibition, cell reporter; activity change, negative = inhibition: at 37.8 µM (top of the series) unless noted
# % is set by controls: 0 for no effect and ±100 for the full control effect; potency is the fitted concentration of half-maximal effect.
Compound,"activity change, negative = inhibition",Potency
S=C(Nc1ccccc1Cl)N(CCCN1CCOCC1)Cc1ccccn1,inactive: 0.409% [at 46.1 µM],
COc1ccc(-c2cn3cccnc3n2)cc1NC(=O)Nc1cc(C)ccc1C,,"inconclusive: 28.2 µM [inhibitor, single point]"
CSc1nsc(SCc2ccc(F)cc2)n1,inactive: 1.81% [at 46.1 µM],
Cc1ccc2c(c1)N(C)/C(=C/c1cccc[n+]1C)S2,,"inconclusive: 1.12 µM [inhibitor, full curve, poor fit]"
Cc1ccccc1S(=O)(=O)Nc1nc2ccccc2nc1Cl,inactive: 25% [at 46.1 µM],
COC(=O)c1cc(CSc2nc3ccc(C)cc3[nH]2)oc1C,,"inconclusive: 35.5 µM [inhibitor, single point]"
O=[N+]([O-])c1ccccc1Nc1c2ccccc2nc2ccccc12,,"inconclusive: 20 µM [inhibitor, partial curve, poor fit]"
O=C1CCN(C2CCN(Cc3nc(Cc4ccccc4F)no3)CC2)CCN1,inactive: 2.56% [at 46.1 µM],
Cc1ccc(-n2nc(CC#N)c(C#N)c2N)cc1,,"inconclusive: 0.141 µM [inhibitor, full curve]"
Cc1ccc(C)c(N2CCN(C(=O)C3CCN(c4nc(C)cc(C)n4)CC3)CC2)c1,,"inconclusive: 29.1 µM [inhibitor, single point]"
Cn1c(=O)c2[nH]c(C3CCCC3)nc2n(C)c1=O,inconclusive: 65.3% [activator],
Cc1noc(C)c1COC(=O)c1ccc(S(=O)(=O)NCc2ccco2)cc1,inactive: -3.15% [at 46.1 µM],
Cc1ccccc1NC(=S)NC(=O)c1cncc(Br)c1,,"inconclusive: 1.41 µM [inhibitor, partial curve, poor fit]"
CCOCCCNc1nc2c(S(=O)(=O)c3ccc(CC)cc3)nnn2c2ccc(Cl)cc12,inactive: 3.53% [at 46.1 µM],
O=C(/C=C/Sc1ccccc1)c1ccc(Cl)cc1,,"inconclusive: 29.1 µM [inhibitor, single point]"
O=C(Cn1ncc2c3ccccc3n(Cc3cccc(Cl)c3)c2c1=O)NCCCN1CCCCC1,inactive: 8.39% [at 46.1 µM],
C/C(=N/NC(=O)c1cccs1)c1cccc(N)c1,,"inconclusive: 11.2 µM [activator, partial curve, poor fit]"
CCN(CC)S(=O)(=O)c1cccc(NC(=O)COc2ccc(Cl)cc2Br)c1,,"inconclusive: 18.4 µM [inhibitor, partial curve, poor fit]"
O=C(O)c1cccc(S(=O)(=O)NCCc2ccccc2)c1,,"inconclusive: 10 µM [activator, partial curve, poor fit]"
CCN(C(=O)CN1CCN(S(=O)(=O)c2ccccc2C(F)(F)F)CC1)c1c(N)n(Cc2ccccc2)c(=O)[nH]c1=O,,"inconclusive: 35.5 µM [activator, single point]"
CCOC(=O)c1ccccc1NC(=O)CSc1nnc(Cc2cccn2C)n1-c1ccc(F)cc1,,inactive
NC(=O)c1ccc(NC(=O)CNCc2ccccc2Cl)cc1,inactive: 8.44% [at 46.1 µM],
CC(C)NC(=O)CN1CCN(Cc2nc(C(c3ccccc3)c3ccccc3)no2)CC1,inactive: -2.61% [at 46.1 µM],

Compound,"activity change, negative = inhibition",Potency
O=C(c1nc2ccccn2c1CN1CCC(Cc2ccccc2)CC1)N1CCCC1,,"inconclusive: 35.5 µM [inhibitor, single point]"
CCCCN(C(=O)c1cc(CC)c(C)s1)c1c(N)n(CC(C)C)c(=O)[nH]c1=O,,"inconclusive: 35.5 µM [inhibitor, partial curve, poor fit]"
Cc1ccc(NC(=O)c2ccc(NCCCN3CCC(C)CC3)c([N+](=O)[O-])c2)cc1F,,"inconclusive: 7.94 µM [inhibitor, partial curve, poor fit]"
O=[N+]([O-])c1ccccc1/C=C/C=N/N1CCCCC1,,"inconclusive: 2.24 µM [activator, partial curve, poor fit]"
COc1ccccc1C(=O)Nc1ccc2c(c1)OCO2,inactive: 5.93%,
Cc1ccc(NC(=O)COC(=O)c2ccco2)cc1C,inactive: 10.4%,
CC(C)(C)C(=O)Nc1ccc(-c2cn3ccsc3n2)cc1,,"inconclusive: 7.08 µM [inhibitor, full curve, poor fit]"
O=C(NC(c1ccccc1)C(Cl)Cl)c1ccccc1 (centres undefined),,"inconclusive: 11.2 µM [activator, single point]"
Cc1ccc(S(=O)(=O)Nc2ccc3nc(C)sc3c2)cc1,,"inconclusive: 35.5 µM [inhibitor, single point]"
CN1C(=O)C2(Oc3ccccc3C3CC(c4ccccc4)=NN32)c2ccccc21 (centres undefined),,"inconclusive: 3.55 µM [activator, single point]"
O=C(CCC(=O)c1ccc(Oc2ccccc2)cc1)Nc1ccc(Cl)cc1Cl,,"inconclusive: 14.6 µM [activator, partial curve, poor fit]"
COc1cc(OC)c(OC)cc1/C=C/C(=O)c1ccc(NS(=O)(=O)c2ccc(C)cc2)cc1,,"inconclusive: 10.3 µM [inhibitor, partial curve, poor fit]"
COc1cccc(C(=O)NC(=O)Nc2cc(C)on2)c1,inactive: -26% [at 46.1 µM],
CC(=O)c1ccc(OCc2cc(C(=O)N3CC[C@@H]4CCCC[C@H]4C3)no2)cc1,,"inconclusive: 2.51 µM [activator, partial curve, poor fit]"
CCOC(=O)C1=C(C#N)C(=S)N=C(C)C1,,"inconclusive: 1.58 µM [activator, partial curve]"
O=C(NC1CCc2ccccc21)C1CCN(S(=O)(=O)c2ccc(Cl)cc2)CC1 (centres undefined),inactive: 27%,
COc1ccc2c(c1OC)C(=O)N1c3ccccc3SC21 (centres undefined),,"inconclusive: 7.94 µM [inhibitor, partial curve, poor fit]"
O=C1CCCN1CCCN=c1c([N+](=O)[O-])nn(-c2ccc(Cl)cc2)n1O,,"inconclusive: 22.4 µM [inhibitor, single point]"
Cc1ccc(S(=O)(=O)NCC(=O)OC(C)C(=O)NC2CCCCC2C)cc1C (centres undefined),inactive: -3.39%,
C=CCOc1nc(-c2ccccc2Cl)nc2ccccc12,,"inconclusive: 0.891 µM [inhibitor, full curve, poor fit]"
Cc1ccc(S(=O)(=O)Nc2ccc(O)c3ccccc23)c(C)c1,,"inconclusive: 2.24 µM [inhibitor, partial curve, poor fit]"
Cc1ccc(NCC(=O)Nc2cccc(S(=O)(=O)N(C)C)c2)c(Cl)c1,,"inconclusive: 35.5 µM [inhibitor, single point]"
COC(=O)c1cccc(NC(=O)c2ccc3c(c2)C(=O)N(CC2CCCO2)C3=O)c1 (centres undefined),inactive: -13.9%,

# In a second layout: entries from further up
Compound | activity change, negative = inhibition | Potency
COc1ccccc1C(=O)Nc1ccc2c(c1)OCO2 | inactive: 5.93% | 
CCOC(=O)C1=C(C#N)C(=S)N=C(C)C1 |  | inconclusive: 1.58 µM [activator, partial curve]
COC(=O)c1cccc(NC(=O)c2ccc3c(c2)C(=O)N(CC2CCCO2)C3=O)c1 (centres undefined) | inactive: -13.9% | 

# (cont.)

Compound,"activity change, negative = inhibition",Potency
Clc1ccc(-c2nnc(NCc3ccccc3)c3ccccc23)cc1,,"inconclusive: 35.5 µM [inhibitor, single point]"
CC(C)(C)c1ccc(OCCCC(=O)Nc2cccc(S(=O)(=O)N3CCOCC3)c2)cc1,,"inconclusive: 35.5 µM [inhibitor, single point]"
COc1ccc(C(=O)N2CCNC(=O)C2CC(=O)Nc2ccc(C)c(C)c2)cc1 (centres undefined),inactive: 26.6%,
CCOc1ccccc1N(C(=O)c1snc(C(N)=O)c1N)C(C(=O)NCCC(C)C)c1ccco1 (centres undefined),,"inconclusive: 35.5 µM [inhibitor, single point]"
O=C(Nc1ccc(Oc2cccnc2)nc1)c1ccc(C(F)(F)F)cc1,,active: 5.62 µM
Cc1csc(NC(=O)c2ccc(N3CCCC3=O)cc2)n1,,active: 1.64 µM
CC(C)(C)CC(=O)Nc1ccc(S(=O)(=O)NC2=NCCCCC2)cc1,,"inconclusive: 1 µM [inhibitor, single point]"
Cc1ccc(CNC(=O)C(CC(C)C)OC(=O)c2ccco2)cc1 (centres undefined),,"inconclusive: 35.5 µM [inhibitor, single point]"
S=C(Nc1ccccc1)N1CCCCC1,inactive: 6.4%,
COc1ccc(-c2nc3c(c4c2C[C@H](c2ccccc2)OC4)CN(S(=O)(=O)c2ccc(Cl)c4nonc24)CC3)c(C)c1,,inactive
O=C(CCC1CCCC1)N1CCN(C2CCCC2)CC1,,"inconclusive: 31.6 µM [activator, single point]"
O=C(NCc1ccccc1OC(F)(F)F)C1CCC(=O)N(C2CC2)C1 (centres undefined),inactive: 27.1%,
Cc1ccc(CN2CCCC(CO)(Cc3ccccc3C)C2)s1 (centres undefined),,"inconclusive: 22.4 µM [inhibitor, partial curve, poor fit]"
Cc1cccc(NC(=O)CSc2nnc(CSc3nc(C)cc(C)n3)n2Cc2ccco2)c1,,inactive
O=C(NNc1cc(Cl)ccc1Cl)c1cccnc1Cl,,"inconclusive: 6.31 µM [inhibitor, single point]"
COc1ccc(N(CC(=O)NC2CCCC2)C(=O)CS(=O)CC(=O)Nc2ccc3c(c2)OCO3)cc1 (centres undefined),,"inconclusive: 14.1 µM [inhibitor, partial curve, poor fit]"
COc1ccc(C(CNC(=O)c2cccc(S(=O)(=O)Nc3ccc(F)cc3)c2)N(C)C)cc1 (centres undefined),,"inconclusive: 22.4 µM [inhibitor, single point]"
N=c1n(CCN2CCOCC2)c2ccccc2n1CC(=O)c1ccc(Cl)c(Cl)c1,,"inconclusive: 23.1 µM [inhibitor, single point]"
Cc1ccc2c(c1)N(Cc1cccc(C#N)c1)C=NS2(=O)=O,,"inconclusive: 3.55 µM [inhibitor, single point]"
N=C1/C(=C\c2ccc(SCc3ccco3)o2)C(=O)N=C2SC=NN12,,"inconclusive: 0.794 µM [inhibitor, single point]"
CC(C)COCC(CN(Cc1ccccc1)c1ccccc1)N1CCCC1 (centres undefined),,"inconclusive: 29.1 µM [inhibitor, single point]"
Cc1ccc(/C=c2\sc3nc(-c4ccccc4Br)nn3c2=O)o1,inactive: 2.91%,
O/N=C\c1ccc(-c2ccccc2)o1,,"inconclusive: 5.62 µM [activator, partial curve, poor fit]"
